Experimental data published in PubChem BioAssay AID1347075 (National Center for Advancing Translational Sciences (NCATS), 2019).
Hit rate of the full screen: of about 400,000 compounds, about 5,500 (1.4%) were called active. This list was built around the results that the source calls inconclusive (neither active nor inactive); the mix of calls is not that of the screen. Calls follow the shape of the dose curve; as a rule, active = well fitted cell-killing curve with a large enough effect; inconclusive = small, poorly fitted or top-dose-only effect, or effect the other way; inactive = flat fitted curve, though single readings scatter. Potencies beside an inconclusive call are fits to weak or partial responses and may not hold up.

Experiment: qHTS assay for MDR1-selective chemotherapeutics: Primary screen using the parental adenocarcinoma cell KB-3-1; also: nearly all actives have a fitted effect of over 60% in size
Conditions: KB-3-1 viability, CellTiter-Glo ATP luminescence, 72 h; series mostly up to 46.1 µM
Method in brief: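 72 h, 37 °C compound treatment of KB-3-1 parental cells; CellTiter-Glo added, 10 min, luminescence read. Data corrected against DMSO-only plates and normalized before curve fitting.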
Potency is read from the fitted curve at half-maximal effect.

SMILES	Potency
Cc1c(O)ccc(/C(Cc2ccc3ccccc3n2)=N\O)c1O	active: 16.4 µM
CCCCN1C(=O)C(=O)c2cc(Cl)ccc21	inconclusive: 29.1 µM [cytotoxic, single point]
CCCCC(=O)NNC(=S)NCc1ccccc1	inactive
Cc1ccc(-c2nc3cc(C(C)C)ccc3o2)cc1NC(=O)c1cc([N+](=O)[O-])ccc1N1CCOCC1	inactive
O=C1CC(CSc2ccc(Cl)cc2)=NN1	inactive
CN(C)C(=O)COC(=O)c1cccc(S(=O)(=O)Nc2ccc(OCc3ccccc3)cc2)c1	inconclusive: 18.4 µM [rising, partial curve, poor fit]
COc1ccc(/C=C/c2ccc3ccccc3n2)cc1OC	inconclusive: 1.16 µM [cytotoxic, full curve, poor fit]
COc1ccc(/C=N\NC(=O)c2ccc(F)cc2)cc1COc1ccccc1C(N)=O	inactive
O=C(O)C1=C[C@@H](c2ccc(Br)cc2)C[C@@H](OCCCCO)O1	inconclusive: 25.9 µM [rising, partial curve, poor fit]
O/N=C/c1ccc(OCc2ccccc2)c(Cl)c1	inconclusive: 18.4 µM [cytotoxic, single point]
CCOC(=O)[C@H]1[C@H]2COc3ccc(Cl)cc3[C@@H]2N2C(=O)c3cc(OC)ccc3NC(=O)[C@@]12C	inconclusive: 5.17 µM [cytotoxic, partial curve, poor fit]
O=C1/C(=C/c2ccco2)SC(=S)N1C1CCS(=O)(=O)C1 (stereo not given)	inactive
Nc1c(C(=O)Nc2cccc(C(F)(F)F)c2)c2ccccn2c1C(=O)c1ccccc1	inactive
CCCOc1cccc(-c2nnc(NC(=O)c3ccco3)s2)c1	inconclusive: 18.4 µM [cytotoxic, single point]
COC(=O)c1cn(Nc2ncc(C(F)(F)F)cc2Cl)c(=O)c2ccccc12	inconclusive: 20.6 µM [cytotoxic, single point]
Cc1csc(=O)n1CCC(=O)OCC(=O)Nc1ncc(Cl)cc1Cl	inactive
O=C(Nc1ccc(F)cc1)c1ccc(CSc2ccccc2)o1	inconclusive: 20.6 µM [cytotoxic, partial curve, poor fit]
COCCN(C(=O)c1ccc2ccccc2c1)c1c(N)n(Cc2ccccc2)c(=O)[nH]c1=O	inconclusive: 16.4 µM [rising, single point]
CCOC(=O)C1(CCOc2ccccc2)CCN(Cc2cc(OC)c(O)cc2Cl)CC1	inconclusive: 20.6 µM [cytotoxic, single point]
CCOC(=O)c1nc(-c2ccc3c(c2)OCO3)[nH]c1C	active: 13 µM

Taken from above.
For Potency, CN(C)C(=O)COC(=O)c1cccc(S(=O)(=O)Nc2ccc(OCc3ccccc3)cc2)c1 shows inconclusive: 18.4 µM [rising, partial curve, poor fit]
For Potency, CCCCC(=O)NNC(=S)NCc1ccccc1 shows inactive
